PubChem BioAssay AID1053208 – Peter MacCallum Cancer Centre – 2014

Assay: 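Genes whose silencing cuts survival of bone tumour cells only with doxorubicin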 (primary screen)
Cells: mouse osteosarcoma cells, early-passage culture from an engineered mouse model of fibroblastic bone tumour
Reagents: siRNA pool against mouse genes, 40 nM
Duration: about 120 h (48 h before drug, then 72 h with drug)
Conditions: doxorubicin 100 nM for 72 h, roughly 30-40% inhibitory dose
Detection: 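Luminescent ATP signal taken as viability with or without 100 nM doxorubicin for 72 h; mean of two wells set against non-targeting siRNA and turned into robust z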
Scale: viability z-score with doxorubicin: higher = more viable cells under doxorubicin; viability z-score without drug: higher = more viable cells with knock-down alone
Rule for the call: 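Called active if knock-down leaves viability unchanged without drug (z within -2 to 2) but lowers it with doxorubicin (z at or under -2)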
Shown is a random part of about 17,000 reagents tested. Over the whole deposit, 788 (4.7%) are marked active. 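Calls rest on z-score classes alone; an extra cut-off of viability at most 70% of control was not applied to them.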 Not all columns of the deposit are shown.

Which result is listed for Xirp1?
combined z-score class: low cell count with and without drug; viability z-score with doxorubicin: -3.26; viability z-score without drug: -2.87; call: inactive

How did the screen score Sfrp2?
combined z-score class: no change with or without drug; viability z-score with doxorubicin: 0.22; viability z-score without drug: 0.51; call: inactive

For Usb1, how do the results read?
combined z-score class: no change with or without drug; viability z-score with doxorubicin: -0.22; viability z-score without drug: -1.52; call: inactive

With Hmgxb4, how do the results read?
combined z-score class: no change with or without drug; viability z-score with doxorubicin: 0.9; viability z-score without drug: -0.51; call: inactive

With Fcgr3, what does the deposit list?
combined z-score class: no change with or without drug; viability z-score with doxorubicin: -0.22; viability z-score without drug: -0.51; call: inactive

What did the screen give for Rab40c?
combined z-score class: no change with or without drug; viability z-score with doxorubicin: 1.69; viability z-score without drug: 1.01; call: inactive

Which result is listed for Cd5l?
combined z-score class: no change with or without drug; viability z-score with doxorubicin: -0.9; viability z-score without drug: -1.01; call: inactive

With Gpr4, how do the results read?
combined z-score class: no change with or without drug; viability z-score with doxorubicin: 0.34; viability z-score without drug: 0.17; call: inactive

For Entpd3, what was measured?
combined z-score class: no change with or without drug; viability z-score with doxorubicin: -0.45; viability z-score without drug: 0.34; call: inactive

For Or5an9, how do the results read?
combined z-score class: no change with or without drug; viability z-score with doxorubicin: -1.12; viability z-score without drug: 0.17; call: inactive

Which result is listed for Rasd1?
combined z-score class: no change with or without drug; viability z-score with doxorubicin: 0.34; viability z-score without drug: 0.67; call: inactive

For Serpinb12, how do the results read?
combined z-score class: no change with or without drug; viability z-score with doxorubicin: -0.67; viability z-score without drug: -1.69; call: inactive

What did the screen give for Sp7?
combined z-score class: no change with or without drug; viability z-score with doxorubicin: 0.67; viability z-score without drug: 1.18; call: inactive

What is on record for Rad9a?
combined z-score class: no change with or without drug; viability z-score with doxorubicin: 1.01; viability z-score without drug: 0.51; call: inactive

Which result is listed for Krtap1-5?
combined z-score class: no change with or without drug; viability z-score with doxorubicin: 0.9; viability z-score without drug: 0.17; call: inactive

With Rps29, what was measured?
combined z-score class: low cell count with and without drug; viability z-score with doxorubicin: -4.27; viability z-score without drug: -3.88; call: inactive

How did the screen score Gjb1?
combined z-score class: high cell count with doxorubicin only; viability z-score with doxorubicin: 2.47; viability z-score without drug: 0; call: inactive

With Gpr34, how do the results read?
combined z-score class: no change with or without drug; viability z-score with doxorubicin: -0.22; viability z-score without drug: 0.17; call: inactive

Which result is listed for Nxn?
combined z-score class: no change with or without drug; viability z-score with doxorubicin: 0.67; viability z-score without drug: -0.17; call: inactive

How did the screen score Moxd1?
combined z-score class: low cell count with doxorubicin only; viability z-score with doxorubicin: -2.25; viability z-score without drug: -1.01; call: active

With Slc25a29, how do the results read?
combined z-score class: no change with or without drug; viability z-score with doxorubicin: -1.46; viability z-score without drug: -0.17; call: inactive

With Plin2, how do the results read?
combined z-score class: no change with or without drug; viability z-score with doxorubicin: -0.22; viability z-score without drug: -1.18; call: inactive

How did the screen score Cbll1?
combined z-score class: low cell count with doxorubicin only; viability z-score with doxorubicin: -2.02; viability z-score without drug: -0.51; call: active

For Gmcl1, what was measured?
combined z-score class: no change with or without drug; viability z-score with doxorubicin: -1.24; viability z-score without drug: 1.18; call: inactive

How did the screen score Hmces?
combined z-score class: no change with or without drug; viability z-score with doxorubicin: -0.67; viability z-score without drug: -1.01; call: inactive

For Ugt2b5, what was measured?
combined z-score class: no change with or without drug; viability z-score with doxorubicin: 0; viability z-score without drug: -0.51; call: inactive

For Or6k8, what was measured?
combined z-score class: no change with or without drug; viability z-score with doxorubicin: 0.56; viability z-score without drug: 0.51; call: inactive

What did the screen give for Garin2?
combined z-score class: no change with or without drug; viability z-score with doxorubicin: -0.67; viability z-score without drug: 0.17; call: inactive

No new results follow: entries from further up.
Rab40c → combined z-score class: no change with or without drug; viability z-score with doxorubicin: 1.69; viability z-score without drug: 1.01; call: inactive
Cd5l → combined z-score class: no change with or without drug; viability z-score with doxorubicin: -0.9; viability z-score without drug: -1.01; call: inactive
